# Experimental data taken from PubChem BioAssay (Tox21).
# The chains behind the UniProt entries cited, without tags or fusion partners. Where a name states a change or a piece, a line headed by the entry shows the natural chain unless it says otherwise.
# UniProt P10635, whole entry, looked up: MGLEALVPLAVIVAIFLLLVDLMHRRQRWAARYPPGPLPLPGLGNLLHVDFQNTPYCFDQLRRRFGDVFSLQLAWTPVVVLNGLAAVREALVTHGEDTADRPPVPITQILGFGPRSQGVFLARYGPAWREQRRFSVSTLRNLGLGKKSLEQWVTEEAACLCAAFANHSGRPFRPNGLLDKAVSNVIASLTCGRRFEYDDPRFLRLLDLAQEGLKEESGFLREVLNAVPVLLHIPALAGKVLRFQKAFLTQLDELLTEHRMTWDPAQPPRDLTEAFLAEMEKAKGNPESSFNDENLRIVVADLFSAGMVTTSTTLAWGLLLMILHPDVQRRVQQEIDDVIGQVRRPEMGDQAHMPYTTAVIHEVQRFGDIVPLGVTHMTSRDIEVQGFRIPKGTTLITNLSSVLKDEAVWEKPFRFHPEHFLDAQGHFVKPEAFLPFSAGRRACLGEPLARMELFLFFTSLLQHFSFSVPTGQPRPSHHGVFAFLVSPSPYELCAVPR
# UniProt P22303: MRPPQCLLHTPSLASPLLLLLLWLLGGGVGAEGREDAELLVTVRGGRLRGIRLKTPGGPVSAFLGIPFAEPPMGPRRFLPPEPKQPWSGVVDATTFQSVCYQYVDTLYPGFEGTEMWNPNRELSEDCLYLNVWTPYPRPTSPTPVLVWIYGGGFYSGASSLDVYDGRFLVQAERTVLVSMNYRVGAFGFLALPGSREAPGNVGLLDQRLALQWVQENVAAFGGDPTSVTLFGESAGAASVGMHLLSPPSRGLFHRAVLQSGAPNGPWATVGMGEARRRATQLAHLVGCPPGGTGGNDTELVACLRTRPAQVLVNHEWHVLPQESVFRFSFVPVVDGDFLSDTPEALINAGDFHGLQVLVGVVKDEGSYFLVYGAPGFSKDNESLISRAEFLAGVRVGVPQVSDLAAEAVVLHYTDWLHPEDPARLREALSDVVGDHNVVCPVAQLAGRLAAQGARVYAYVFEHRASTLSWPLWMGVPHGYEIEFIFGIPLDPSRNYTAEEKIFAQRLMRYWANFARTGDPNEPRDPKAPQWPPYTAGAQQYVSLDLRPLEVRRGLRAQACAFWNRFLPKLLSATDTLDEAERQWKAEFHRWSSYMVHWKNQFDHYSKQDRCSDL
# UniProt Q9R1A7: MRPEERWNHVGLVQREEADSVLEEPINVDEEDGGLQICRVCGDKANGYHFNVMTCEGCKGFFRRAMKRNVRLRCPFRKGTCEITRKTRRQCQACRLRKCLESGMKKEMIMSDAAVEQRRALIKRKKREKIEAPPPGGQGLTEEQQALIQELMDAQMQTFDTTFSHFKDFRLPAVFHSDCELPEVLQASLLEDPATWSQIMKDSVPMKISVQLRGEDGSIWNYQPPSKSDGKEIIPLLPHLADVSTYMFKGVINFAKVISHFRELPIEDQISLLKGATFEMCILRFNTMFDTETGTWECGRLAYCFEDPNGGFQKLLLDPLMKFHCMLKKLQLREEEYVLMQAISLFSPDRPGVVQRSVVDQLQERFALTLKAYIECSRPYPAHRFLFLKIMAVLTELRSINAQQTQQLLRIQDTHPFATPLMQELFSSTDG
# “And” between values parts separate entries of the source, which are not always exact repeats. Equal entries are not always repeated. Inconclusive results, whose numbers are uncertain, are shown with a selection of clear calls. For part of these data: Potencies beside an inconclusive call are fits to weak or partial responses and may not hold up. More than one record can exist for a structure, and the calls need not agree. The source made the active and inactive calls. Unless noted, calls come from the whole dose curve; as a rule, active = well fitted curve in the direction sought with a large enough effect in the repeat runs; inconclusive = weak or mixed curves; inactive = no such curve, though single readings can be large; an effect the other way counts as inactive or inconclusive.
# Assays:
# [1] = target: Nuclear receptor subfamily 1 group I member 2 (Homo sapiens) (UniProt O75469); assay: Human pregnane X receptor (PXR) small molecule agonists, qHTS assay (AID 1346982); note: nearly all actives have a fitted effect of over 35% in size
# Outline: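 Reporter HepG2 cells expressing PXR-Luc are cultured in charcoal-stripped FBS (5%), treated with compounds for 24 hr at 37 C, and assayed by ONE-Glo luminescence after 30 min at room temperature.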
# [2] = target: Cytochrome P450 2D6 (Homo sapiens) (UniProt P10635); assay: Cytochrome P450 Family 2 Subfamily D Member 6 (CYP2D6) small molecule antagonists: luciferase reporter qHTS assay (AID 1671196); note: nearly all actives have a fitted effect of over 50% in size
# Outline: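 Test chemicals meet CYP2D6 plus proluciferin substrate (10 min, RT); NADPH regenerating solution then drives turnover for 1 h. Detection reagent halts the reaction; luminescence measured after 20 min.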
# [3] = target: Acetylcholinesterase (Homo sapiens) (UniProt P22303); assay: Acetylcholinesterase (AChE) small molecule antagonists: colormetric cell-based qHTS assay (AID 1347395; calls by dose curve; note: nearly all actives have a fitted effect of over 30% in size)
# Outline: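 In this cell-based qHTS, attached SH-SY5Y cells were treated with test chemicals for 30 min, after which acetylthiocholine hydrolysis was followed by DTNB colour development over 90 min at 37 C.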
# [4] = target: Nuclear receptor subfamily 1 group I member 2 (Homo sapiens) (UniProt O75469); assay: Human pregnane X receptor (PXR) activation by small molecules, qHTS assay (AID 1346985); note: nearly all actives have a fitted effect of over 40% in size
# Outline: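 DPX-2 cells (HepG2 co-transfected with a PXR response element and a CYP3A4-promoter luciferase construct) were seeded at 2,000 per well, rested 5 hr at 37C, then exposed to DMSO-dissolved compounds for 24 hr. Activation was read as luciferase luminescence.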
# [5] = target: Nuclear receptor subfamily 1 group I member 2 (Homo sapiens) (UniProt O75469); assay: CYP3A4 induction through human pregnane X receptor (PXR) by small molecules, qHTS assay (AID 1346984); conditions: DPX-2 HepG2 PXR, CYP3A4-luciferin luminescence, 24 h; activation: at 46.1 µM (top of the series) unless noted; note: nearly all actives have a fitted effect of over 40% in size
# Outline: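 Induction measured in HepG2-based DPX-2 cells co-expressing human PXR and a CYP3A4 promoter-driven luciferase. After a 24-hour compound exposure, cells received CYP3A4 luciferin substrate at 3uM final for 3 hours, and light output was then recorded.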
# [6] = target: Acetylcholinesterase (Homo sapiens) (UniProt P22303); assay: Acetylcholinesterase (AChE) small molecule antagonists: fluorescence cell-based qHTS assay (AID 1347398; calls by dose curve; note: nearly all actives have a fitted effect of over 50% in size); conditions: Potency: AChE activity
# Outline: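 Using neuroblastoma SH-SY5Y cells as the enzyme source, test chemicals are preincubated 30 min at 37 C; AChE-driven acetylthiocholine cleavage is then quantified by thiocholine-dependent Thiolite Green fluorescence after 40 min at room temperature.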
# [7] = target: Nuclear receptor subfamily 1 group I member 2 (Rattus norvegicus) (UniProt Q9R1A7); assay: Rat pregnane X receptor (rPXR) activation by small molecules, qHTS assay (AID 1346983); conditions: rPXR luciferase reporter cells, One-Glo luminescence, 24 h; max activation: stronger effect = higher value; note: nearly all actives have a fitted effect of over 20% in size
# Outline: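 Cell-based rPXR luciferase reporter assay, 2,000 cells per well, rested 5hr at 37 C before compound addition in DMSO, then 24 hr at 37 C. One-Glo reagent was added and luminescence read after 30 min at room temperature.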
# [8] = target: Acetylcholinesterase (Homo sapiens) (UniProt P22303); assay: Acetylcholinesterase (AChE) small molecule antagonists: enzyme-based qHTS assay (AID 1347397; calls by dose curve; note: nearly all actives have a fitted effect of over 55% in size); conditions: Potency: AChE enzyme activity inhibition
# Outline: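 Compound or DMSO vehicle was pin-transferred onto recombinant human AChE (50 mU/mL as dispensed) and left 30 min at room temperature. Acetylthiocholine with DTNB then started the reaction, read colorimetrically 10 min later.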
# [9] = target: Acetylcholinesterase (Homo sapiens) (UniProt P22303); assay: Acetylcholinesterase (AChE) small molecule antagonists: enzyme-based qHTS assay with human liver microsomes (AID 1347399; calls by dose curve; note: nearly all actives have a fitted effect of over 60% in size); conditions: Potency: qHTS inhibition
# Outline: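 Recombinant human AChE (50 mU/mL in the enzyme mix) and human liver microsomes (0.25 mg/mL final) were preincubated with compound and NADPH (0.25 mg/mL final) for 30 min at 37 C. Acetylthiocholine/DTNB was then added; thiocholine was read colorimetrically after 10 min at room temperature.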
# Potency is the fitted concentration of half-maximal effect.
compound,measurement,setting,value
CC(C)[C@@H](C(=O)O[C@@H](C#N)c1cccc(Oc2ccccc2)c1)c1ccc(Cl)cc1,Potency,[1],active: 5.53 µM and active: 9.69 µM
same,Potency,[2],active: 32.2 µM and inactive
c1ccc2cc3c(cc2c1)-c1cccc2cccc-3c12,Potency,[1],active: 2.4 µM
same,Potency,[3],inactive
CCC(=O)O[C@H]1CC[C@H]2[C@@H]3CCC4=CC(=O)CC[C@]4(C)[C@H]3CC[C@]12C,Potency,[1],inconclusive: 27.3 µM [activator]
same,Potency,[2],"inconclusive: 31.7 µM [inhibitor, partial curve]"
CCOC(=O)C(C)OC(=O)c1cc(Oc2ccc(C(F)(F)F)cc2Cl)ccc1[N+](=O)[O-] (stereo not drawn),Potency,[1],"inconclusive: 77 µM [activator, single point]"
same,Potency,[2],"inconclusive: 14.1 µM [inhibitor, full curve] and inconclusive: 28.3 µM [inhibitor, partial curve]"
CC1(C)C(C=C(Cl)Cl)C1C(=O)OC(C#N)c1cccc(Oc2ccccc2)c1 (stereo not drawn),Potency,[1],"active: 2.73 µM and inconclusive: 16.8 µM [activator, partial curve]"
same,Potency,[2],inconclusive: 56.4 µM [inhibitor]
N#CN=C1SCCN1Cc1ccc(Cl)nc1,Potency,[1],"inconclusive: 68.6 µM [activator, partial curve, poor fit]"
CCCCCCCCOC(=O)c1ccccc1C(=O)OCCCCCCCC,Potency,[1],active: 68.4 µM
same,Potency,[4],inactive
same,Potency,[2],"inconclusive: 39.8 µM [inhibitor, full curve, poor fit]"
Nc1c(Cl)c(Cl)nc(C(=O)O)c1Cl,Potency,[1],"inconclusive: 60.5 µM [activator, partial curve, poor fit]"
Cc1ccc(N=C=O)cc1N=C=O,Potency,[1],inconclusive: 55.9 µM [activator]
Clc1ccc(C(c2ccc(Cl)cc2)C(Cl)(Cl)Cl)cc1,Potency,[1],"inconclusive: 15.4 µM [activator, full curve, poor fit]"
same,Potency,[5],active: 22.4 µM
CCC(C)(C)C(=O)OC1=C(c2ccc(Cl)cc2Cl)C(=O)OC12CCCCC2,Potency,[1],"inconclusive: 48.6 µM [activator, partial curve, poor fit]"
same,Potency,[2],inactive
CCCCCC[n+]1ccccc1,Potency,[1],"inconclusive: 6.9 µM [activator, full curve, poor fit] and inconclusive: 68.5 µM [activator, partial curve, poor fit]"
C=CCN1C[C@H](C)N([C@H](c2ccc(C(=O)N(CC)CC)cc2)c2cccc(OC)c2)C[C@H]1C,Potency,[1],active: 11.9 µM
same,Potency,[5],inactive
same,Potency,[4],"inconclusive: 15.8 µM [activator, partial curve, poor fit]"
CCOc1ccc(C(C)(C)COCc2cccc(Oc3ccccc3)c2)cc1,Potency,[1],"inconclusive: 7.7 µM [activator, full curve, poor fit]"
OCC(c1ccc(Cl)cc1)c1ccc(Cl)cc1,Potency,[1],inconclusive: 48.6 µM [activator]
CCC(C)(C)c1ccc(O)cc1,Potency,[1],"inconclusive: 61.8 µM [activator, partial curve]"
same,Potency,[6],"inconclusive: 0.776 µM [inhibitor, partial curve, poor fit]"
COc1ccc(/C(=C/C(=O)N2CCOCC2)c2ccc(Cl)cc2)cc1OC,Potency,[1],active: 15.4 µM
Oc1cccc(Cl)c1,Potency,[1],"inconclusive: 30.3 µM [activator, partial curve, poor fit]"
CC(C)(c1ccccc1)c1cc(-n2nc3ccccc3n2)c(O)c(C(C)(C)c2ccccc2)c1,Potency,[1],inactive
CC(C)OC(=O)C(O)(c1ccc(Cl)cc1)c1ccc(Cl)cc1,Potency,[1],active: 21.7 µM
CN(C)C(=S)SSC(=S)N(C)C,Potency,[1],"inconclusive: 15.1 µM [activator, partial curve, poor fit] and inconclusive: 298 nM [activator, single point]"
same,Potency,[5],inactive
same,Potency,[4],"inconclusive: 28.2 µM [activator, single point]"
same,Potency,[3],"active: 78.5 µM and inconclusive: 71 µM [inhibitor, partial curve]"
same,Potency,[6],active: 35.1 µM and active: 39.9 µM and active: 21.9 µM
same,Potency,[2],"inconclusive: 3.94 µM [inhibitor, full curve]"
C[C@]12Cc3nonc3C[C@@H]1CC[C@@H]1[C@@H]2CC[C@@]2(C)[C@H]1CC[C@]2(C)O,Potency,[1],active: 29.8 µM
same,Potency,[7],"inconclusive: 0.794 µM [activator, full curve, poor fit]"
same,Potency,[4],inactive
CC(C)C1CCC(Cc2ccc(Cl)cc2)C1(O)Cn1cncn1 (stereo not drawn),Potency,[1],active: 21.5 µM
CCOC(=O)[C@]1(c2ccccc2)Oc2ccccc2[C@@H]1N,Potency,[1],"inconclusive: 27.3 µM [activator, single point]"
same,Potency,[8],"inconclusive: 89.4 µM [falling, single point]"
same,Potency,[2],active: 0.2 µM
O=[N+]([O-])c1cccc(O)c1,Potency,[1],"inconclusive: 61.3 µM [activator, partial curve, poor fit]"
CCCCCCCCCCCCCCCCn1cc[n+](C)c1,Potency,[1],"inconclusive: 4.9 µM [activator, partial curve]"
same,Potency,[3],"inconclusive: 80.4 µM [inhibitor, partial curve] and inconclusive: 79.9 µM [inhibitor, partial curve]"
CC(C)(C)c1cc(O)ccc1O,Potency,[3],"inconclusive: 71 µM [inhibitor] and inconclusive: 56.4 µM [inhibitor, partial curve, poor fit]"
same,Potency,[6],"inconclusive: 63.3 µM [inhibitor, partial curve]"
OC(c1ccccc1)(c1ccccc1)C1CCNCC1,Potency,[3],inactive
CCCCCCCCCCCCCCCCCCn1cc[n+](C)c1,Potency,[3],"inconclusive: 50 µM [inhibitor, partial curve]"
same,Potency,[6],"inconclusive: 35.4 µM [inhibitor, partial curve]"
COP(=O)(OC)O/C(=C\Cl)c1cc(Cl)c(Cl)cc1Cl,Potency,[3],"inconclusive: 44.8 µM [inhibitor, partial curve]"
same,Potency,[8],"inconclusive: 71 µM [falling, partial curve, poor fit]"
same,Potency,[6],"inconclusive: 39.9 µM [inhibitor, partial curve]"
S=C=Nc1cccc2ccccc12,Potency,[1],active: 10.8 µM
same,Potency,[2],active: 14 µM
CC(C)C(=O)OCC(C)(C)C(OC(=O)C(C)C)C(C)C (stereo not drawn),Potency,[3],"inconclusive: 71.6 µM [inhibitor, partial curve]"
CCOC(=O)C1(c2ccccc2)CCN(CCc2ccc(N)cc2)CC1,Potency,[1],active: 3.76 µM
same,Potency,[2],active: 3.47 µM
ClC1=C(Cl)[C@]2(Cl)[C@@H]3[C@H]4C[C@H]([C@@H]5O[C@H]45)[C@@H]3[C@@]1(Cl)C2(Cl)Cl,Potency,[7],"inconclusive: 25.1 µM [activator, partial curve, poor fit]"
same,Potency,[5],inactive
same,Potency,[4],active: 25.1 µM
same,Potency,[2],inactive
CCOC(=O)COc1cc(-c2nn(C)c(OC(F)F)c2Cl)c(F)cc1Cl,Potency,[1],inconclusive: 61.1 µM [activator]
same,Potency,[2],"inconclusive: 10 µM [inhibitor, full curve]"
Cc1cc(OC(=O)N(C)C)nn1C(=O)N(C)C,Potency,[3],active: 7.1 µM
same,Potency,[8],active: 5.03 µM
CCN(CC)CCc1c[nH]c2ccccc12,Potency,[3],inactive
CCCCC/C=C\C/C=C\C/C=C\C/C=C\CCCC(=O)NCC(=O)O,Potency,[1],inactive
same,Potency,[2],active: 15.5 µM
CCC[CH2][Sn]([Cl])([Cl])[CH2]CCC,Potency,[1],"inconclusive: 246 nM [activator, single point] and inconclusive: 611 nM [activator, single point]"
same,Potency,[2],"inconclusive: 25.2 µM [inhibitor, full curve]"
CCCC[P+](CC)(CCCC)CCCC (tested in a mixture with another compound),Potency,[3],"inconclusive: 71.6 µM [inhibitor, partial curve]"
CCN(CC)C(=S)S,Potency,[1],"inconclusive: 30.9 µM [activator, partial curve]"
same,Potency,[2],"inconclusive: 90.2 µM [inhibitor, partial curve, poor fit] and inactive"
CCCSP(=O)(OCC)Oc1ccc(Br)cc1Cl (stereo not drawn),Potency,[3],active: 6.88 µM
same,Potency,[6],active: 0.866 µM
same,Potency,[9],active: 2.74 µM
same,Potency,[2],active: 15.4 µM
CCC(C)c1cc([N+](=O)[O-])cc([N+](=O)[O-])c1O (stereo not drawn),Potency,[3],inactive
O=[N+]([O-])c1ccc(Cl)c([N+](=O)[O-])c1,Potency,[3],active: 64.3 µM and active: 63.3 µM
same,Potency,[2],"inconclusive: 72.1 µM [inhibitor, partial curve] and inconclusive: 63.3 µM [inhibitor, partial curve]"
CC1(C)CN=C(NN=C(/C=C/c2ccc(C(F)(F)F)cc2)/C=C/c2ccc(C(F)(F)F)cc2)NC1,Potency,[1],inconclusive: 6.11 µM [activator]
same,Potency,[2],active: 11.2 µM
Clc1ccc(C(c2ccc(Cl)cc2)C(Cl)Cl)cc1,Potency,[1],"inconclusive: 24.3 µM [activator, single point]"
same,Potency,[2],"inconclusive: 35.6 µM [inhibitor, partial curve]"
CCN(C(C)=O)c1cccc(-c2ccnc3c(C#N)cnn23)c1,Potency,[8],inactive
CCCCCCC[CH2][Sn]([Cl])([Cl])[CH2]CCCCCCC,Potency,[1],"inconclusive: 76.9 µM [activator, single point]"
same,Potency,[2],"inconclusive: 35.6 µM [inhibitor, partial curve]"
O=C(O)c1cc(Oc2ccc(C(F)(F)F)cc2Cl)ccc1[N+](=O)[O-],Potency,[1],"inconclusive: 54.5 µM [activator, partial curve]"
same,Potency,[2],inactive

# A second format for some results above:
compound | measurement | setting | value
CCC(=O)O[C@H]1CC[C@H]2[C@@H]3CCC4=CC(=O)CC[C@]4(C)[C@H]3CC[C@]12C | Potency | [2] | inconclusive: 31.7 µM [inhibitor, partial curve]
C[C@]12Cc3nonc3C[C@@H]1CC[C@@H]1[C@@H]2CC[C@@]2(C)[C@H]1CC[C@]2(C)O | Potency | [4] | inactive
CCCCC/C=C\C/C=C\C/C=C\C/C=C\CCCC(=O)NCC(=O)O | Potency | [1] | inactive
